These are yes or no findings as the source states them, for the method shown. Binding seen in cells or lysates may run through a third protein. For part of these data: Tags and fused reporters may be left off the sequences shown. Each block holds one molecule with its values, some of them ahead of it.
Key:
[1] = target: T1, His-tagged SELENOW (SeCys-13) (UniProt P63300); assay: co-IP; called His-tag pull-down: extracts of HEK 293T cells expressing His-tagged SELENOW (wild type or SeCys-13 mutants), RIPA buffer, incubated overnight at 4 °C with anti-His-tag antibody, protein G agarose 3 h at 4 °C, washed three times with RIPA buffer, immunoblotted
T1 sequence (chain, selenocysteine at 13 (SeCys-13)): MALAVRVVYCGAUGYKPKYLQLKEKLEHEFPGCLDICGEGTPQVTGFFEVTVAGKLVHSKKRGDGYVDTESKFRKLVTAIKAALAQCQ

By UniProt entry, the sequences of proteins in these tests, tags left out.
UniProt Q04206: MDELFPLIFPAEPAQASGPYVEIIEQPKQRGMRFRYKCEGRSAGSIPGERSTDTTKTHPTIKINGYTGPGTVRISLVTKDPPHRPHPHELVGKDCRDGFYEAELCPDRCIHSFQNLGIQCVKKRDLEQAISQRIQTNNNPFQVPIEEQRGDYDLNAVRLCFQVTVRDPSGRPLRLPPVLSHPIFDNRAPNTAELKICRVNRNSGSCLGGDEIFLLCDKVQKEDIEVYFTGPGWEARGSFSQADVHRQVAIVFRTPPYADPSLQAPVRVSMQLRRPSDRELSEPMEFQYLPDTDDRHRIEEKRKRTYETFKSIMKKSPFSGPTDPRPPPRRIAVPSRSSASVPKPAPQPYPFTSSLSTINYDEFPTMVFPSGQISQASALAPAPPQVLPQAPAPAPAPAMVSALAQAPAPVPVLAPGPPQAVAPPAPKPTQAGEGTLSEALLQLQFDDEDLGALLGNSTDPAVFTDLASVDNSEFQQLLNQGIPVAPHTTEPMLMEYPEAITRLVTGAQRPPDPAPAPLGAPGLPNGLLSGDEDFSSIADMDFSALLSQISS

[2] = target: T2, SELENOW (retrovirally overexpressed in pre-osteoclasts) (UniProt P63300); assay: co-IP; nuclear extracts of pre-osteoclasts (osteoclast precursors infected with SELENOW-overexpressing retrovirus, M-CSF and RANKL for 2 days) immunoprecipitated with antibodies against NFATc1, p65, 14-3-3γ or SELENOW, immunoblotted
T2 sequence (chain, selenocysteine at 13 (SeCys encoded by UGA at codon 13)): T1 sequence (chain, selenocysteine at 13 (SeCys-13))

[3] = target: His-tagged SELENOW mutant SeCys13C (UniProt P63300); assay: co-IP; called His-tag pull-down: extracts of HEK 293T cells expressing His-tagged SELENOW (wild type or SeCys-13 mutants), RIPA buffer, incubated overnight at 4 °C with anti-His-tag antibody, protein G agarose 3 h at 4 °C, washed three times with RIPA buffer, immunoblotted
[4] = target: His-tagged SELENOW mutant SeCys13S (UniProt P63300); assay: as above

binding [1]: no binding
Molecule: AP-1, endogenous in HEK 293T (human (endogenous in HEK 293T)) (complex)

binding [2]: no binding
Molecule: AP-1, endogenous in mouse pre-osteoclasts (complex)

binding [3]: no binding | binding [4]: no binding
Molecule: NF-κB (p65), endogenous in HEK 293T (from UniProt Q04206 1-551)

binding [3]: no binding | binding [4]: no binding
B1: NFATc1, endogenous in HEK 293T (protein, UniProt O95644 1-943)
chain: MPSTSFPVPSKFPLGPAAAVFGRGETLGPAPRAGGTMKSAEEEHYGYASSNVSPALPLPTAHSTLPAPCHNLQTSTPGIIPPADHPSGYGAALDGGPAGYFLSSGHTRPDGAPALESPRIEITSCLGLYHNNNQFFHDVEVEDVLPSSKRSPSTATLSLPSLEAYRDPSCLSPASSLSSRSCNSEASSYESNYSYPYASPQTSPWQSPCVSPKTTDPEEGFPRGLGACTLLGSPRHSPSTSPRASVTEESWLGARSSRPASPCNKRKYSLNGRQPPYSPHHSPTPSPHGSPRVSVTDDSWLGNTTQYTSSAIVAAINALTTDSSLDLGDGVPVKSRKTTLEQPPSVALKVEPVGEDLGSPPPPADFAPEDYSSFQHIRKGGFCDQYLAVPQHPYQWAKPKPLSPTSYMSPTLPALDWQLPSHSGPYELRIEVQPKSHHRAHYETEGSRGAVKASAGGHPIVQLHGYLENEPLMLQLFIGTADDRLLRPHAFYQVHRITGKTVSTTSHEAILSNTKVLEIPLLPENSMRAVIDCAGILKLRNSDIELRKGETDIGRKNTRVRLVFRVHVPQPSGRTLSLQVASNPIECSQRSAQELPLVEKQSTDSYPVVGGKKMVLSGHNFLQDSKVIFVEKAPDGHHVWEMEAKTDRDLCKPNSLVVEIPPFRNQRITSPVHVSFYVCNGKRKRSQYQRFTYLPANVPIIKTEPTDDYEPAPTCGPVSQGLSPLPRPYYSQQLAMPPDPSSCLVAGFPPCPQRSTLMPAAPGVSPKLHDLSPAAYTKGVASPGHCHLGLPQPAGEAPAVQDVPRPVATHPGSPGQPPPALLPQQVSAPPSSSCPPGLEHSLCPSSPSPPLPPATQEPTCLQPCSPACPPATGRPQHLPSTVRRDESPTAGPRLLPEVHEDGSPNLAPIPVTVKREPEELDQLYLDDVNEIIRNDLSSTSTHS

— PMC8050258
